Measured values from PubChem BioAssay AID1347076 (National Center for Advancing Translational Sciences (NCATS), 2019).
The campaign covered roughly 400,000 compounds. About 13,000 (3.2%) were called active. Inconclusive results, whose numbers are uncertain, are shown with a selection of clear calls. Calls follow the shape of the dose curve; as a rule, active = well fitted cell-killing curve with a large enough effect; inconclusive = small, poorly fitted or top-dose-only effect, or effect the other way; inactive = flat fitted curve, though single readings scatter. A potency beside an inconclusive call is a rough fit, not a confirmed value.

test: qHTS assay for MDR1-selective chemotherapeutics: Primary screen using the drug-selected MDR subline cells KB-V1; conditions: KB-V1 MDR cells viability, CellTiter-Glo, 72 h; series mostly up to 46.1 µM; also: nearly all actives have a fitted effect of over 60% in size
How it was run: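 Cytotoxicity toward P-gp-expressing KB-V1 cells was determined as loss of CellTiter-Glo luminescence after 72 h at 37 degrees C. Compounds were tested in quantitative HTS format across a concentration range, with curves fitted to normalized data.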
Potency is read from the fitted curve at half-maximal effect.

Row | Structure (SMILES) | Potency
1 | O=C(N1CCOCC1)N1[C@H](COCc2ccccc2)C=CS1(=O)=O | inconclusive: 0.58 µM [cytotoxic, full curve, poor fit]
2 | CC(Oc1ccccc1)C(=O)Nc1ccccc1C(=O)OCc1cc(=O)n2nc(C3CC3)sc2n1 (stereo not given) | inconclusive: 0.731 µM [cytotoxic, full curve, poor fit]
3 | NS(=O)(=O)c1ccc(NC(=O)CSc2ccccn2)cc1 | inconclusive: 0.259 µM [rising, full curve]
4 | O=C(C1CCC(=O)N1Cc1ccccc1Cl)N1CCN(c2cccc(Cl)c2)CC1 (stereo not given) | inconclusive: 14.6 µM [cytotoxic, partial curve, poor fit]
5 | Cc1cc(C)c2c(C)c(C(=O)NCc3ccc(S(N)(=O)=O)cc3)oc2c1 | inconclusive: 20.6 µM [rising, single point]
6 | CCOC(=O)c1cc(-c2ccccc2)n(CC(=O)N2CCCC2)c1C | inactive
7 | COc1ccc(Cc2nnc(NC(=O)CSc3ccccc3)s2)cc1OC | inconclusive: 8.2 µM [cytotoxic, partial curve]
8 | CCOC(=O)CN(Cc1ccccc1)C(C(=O)NC1CCCCC1)c1ccccc1 (stereo not given) | inconclusive: 13 µM [cytotoxic, partial curve]
9 | CN1CC[C@]2(CCN3CCc4c(oc5ccccc45)[C@@H]3C2)N(C)C1=O | inconclusive: 18.4 µM [cytotoxic, partial curve, poor fit]
10 | O=C(CCCCCn1c(=O)[nH]c2ccccc2c1=O)NCCCN1CCN(c2ccccc2F)CC1 | inconclusive: 29.1 µM [cytotoxic, single point]
11 | CCOc1cc(N2CCOCC2)c(OCC)cc1NC(=O)c1ccc(OC)cc1 | inconclusive: 29.1 µM [cytotoxic, partial curve, poor fit]
12 | O=C(CN1CCN(CCN2C(=O)c3cccc4cccc(c34)C2=O)CC1)c1ccc(F)cc1 | inconclusive: 1.46 µM [cytotoxic, full curve]
13 | COC(=O)C(NC(=O)c1ccccc1)=C1CCCCC1 | inconclusive: 23.1 µM [cytotoxic, single point]
14 | COc1ccccc1N1CCN(S(=O)(=O)c2cccc(F)c2)CC1 | inconclusive: 35.5 µM [rising, single point]
15 | O=C(O)C1Nc2ccccc2C2C=CCC12 (stereo not given) | inconclusive: 16.4 µM [rising, partial curve]
16 | COC(=O)C1=CN(c2ccc(OC)cc2)C(N)=C(C#N)C1c1cccc2ccccc12 (stereo not given) | inconclusive: 9.2 µM [cytotoxic, partial curve]
17 | O=[N+]([O-])c1ccc(O)c(NC(=S)Nc2ccccc2)c1 | inactive
18 | COC(=O)Cc1c(C)c2ccc3c(c2oc1=O)CN(Cc1ccc(Cl)cc1)CO3 | inactive
19 | CCNC(=O)C1(C)CCCN(C(=O)c2sccc2C)C1 (stereo not given) | inconclusive: 16.4 µM [rising, single point]
20 | COC(=O)COc1ccc(S(=O)(=O)NCc2ccncc2)cc1 | inconclusive: 29.1 µM [rising, single point]
21 | Cc1ccc(NC(=O)Cc2c(Cl)cccc2Cl)cc1S(=O)(=O)N(C)C | inconclusive: 23.1 µM [cytotoxic, single point]
22 | CC(NCC(=O)NC(=O)NC1CCCC1)c1ccc(Cl)cc1Cl (stereo not given) | inconclusive: 23.1 µM [cytotoxic, single point]
23 | COc1ccc(-c2cc(C(F)(F)F)n3ncc(C(=O)N4CCCCC4c4cccnc4)c3n2)cc1 (stereo not given) | inconclusive: 20.6 µM [cytotoxic, partial curve, poor fit]
24 | COc1ccc(C/C(C)=N/NC(=S)Nc2ccccc2)cc1 | inactive

Row | Structure (SMILES) | Potency
25 | Cc1nn(CCO)c2ncc(C(=O)c3cc(Cl)ccc3O)cc12 | inconclusive: 16.4 µM [cytotoxic, single point]
26 | CCOC(=O)c1cnc2c(cnn2C)c1NCc1ccc(OC)cc1 | inconclusive: 2.31 µM [cytotoxic, full curve, poor fit]
27 | O=C(CN1C(=O)NC2(CCCC2)C1=O)OCc1ccc(F)cc1 | inactive
28 | CCOC(=O)NC(=O)C(=CNc1ccccc1OC)C(=O)NC(=O)OCC | inconclusive: 20.6 µM [rising, single point]
29 | O=C(N/N=C/c1ccc(N2CCOCC2)cc1)c1ccc(NS(=O)(=O)c2cccs2)cc1 | inactive
30 | CCCCn1c(N)c(N(C)C(=O)c2cc3c(s2)CCCCC3)c(=O)[nH]c1=O | inconclusive: 29.1 µM [rising, single point]
31 | CCCCNC(=O)COC(=O)c1c2c(nc3ccccc13)/C(=C\c1cccs1)CC2 | inconclusive: 16.4 µM [cytotoxic, single point]
32 | COc1ccc2cc(C(=O)N3CCc4ccccc43)[nH]c2c1 | inactive
33 | O=C(c1cc(COc2ccc(F)cc2F)on1)N1CC2C[C@@H]3CC1C[C@H](C2)C3 | inactive
34 | CCCCN1C(=O)c2ccc(C(=O)NC3(C)CCS(=O)(=O)C3)cc2C1=O (stereo not given) | inactive
35 | COc1ccc(CNC(=O)C2CCN(S(=O)(=O)N3CCC(C)CC3)CC2)c(OC)c1 | inconclusive: 32.6 µM [cytotoxic, single point]
36 | COc1ccc(NC(=O)CCn2cnnn2)cc1 | inactive
37 | COc1ccc(/C=N/NC(=O)CCn2nc(C)cc2C)cc1 | inactive
38 | Cc1cc(C)n(C(=O)CNC(=O)c2cccc(Br)c2)n1 | inconclusive: 9.2 µM [rising, partial curve]
39 | O=C(COc1cccc2cccnc12)N/N=C/c1cccn1-c1ccc(F)cc1 | inactive
40 | CCOC(=O)C1=CN(Cc2ccco2)S(=O)(=O)N(C)C1c1ccc2ccccc2c1 (stereo not given) | inactive
41 | COc1ccnc(Oc2ccc(F)cc2)c1C(=O)N/C=N/OCc1c(Cl)cccc1Cl | inconclusive: 2.91 µM [cytotoxic, full curve]
42 | COc1ccc(-c2ccc(-c3noc(C4CCCCC4)n3)c(OC)n2)cc1 | active: 16.4 µM
43 | Cc1ccc(-n2nc(C(=O)N3CCN(c4cc(C)ccc4C)CC3)c3c4ccccc4n(C)c3c2=O)cc1 | inconclusive: 29.1 µM [rising, single point]
44 | Cc1c(NC(=O)C(C)(C)C)cccc1-c1nc2ccccc2s1 | inconclusive: 20.6 µM [cytotoxic, partial curve, poor fit]
45 | COc1ccc(C(=O)NC(=S)Nc2nc(-c3ccc(OC)c(Br)c3)cs2)cc1Br | inconclusive: 29.1 µM [cytotoxic, single point]
46 | O=C(CN1CCC(C(=O)c2ccc3c(c2)OCCO3)CC1)Nc1ccccc1C(F)(F)F | inactive
47 | Cn1c(=O)n(C)c2cc(N3CCCCC3)c(NC(=O)Nc3ccc(Br)cc3)cc21 | inconclusive: 1.84 µM [rising, full curve, poor fit]
48 | CCOC(=O)C1(CC2CCCCO2)CCN(C(=O)Nc2cccc(SC)c2)CC1 (stereo not given) | inconclusive: 23.1 µM [cytotoxic, partial curve, poor fit]

Structures listed so far with a furan ring, fused or not, in the order listed:
Row | Structure (SMILES) | Potency
5 | Cc1cc(C)c2c(C)c(C(=O)NCc3ccc(S(N)(=O)=O)cc3)oc2c1 | inconclusive: 20.6 µM [rising, single point]
9 | CN1CC[C@]2(CCN3CCc4c(oc5ccccc45)[C@@H]3C2)N(C)C1=O | inconclusive: 18.4 µM [cytotoxic, partial curve, poor fit]
40 | CCOC(=O)C1=CN(Cc2ccco2)S(=O)(=O)N(C)C1c1ccc2ccccc2c1 (stereo not given) | inactive

More compounds follow.

Row | Structure (SMILES) | Potency
49 | CC(C)(C)C(=O)Nc1ccccc1C(=O)Nc1cc(Cl)ccc1Cl | active: 16.4 µM
50 | CC(C)NC(=O)COC(=O)c1cc(=O)[nH]c2ccccc12 | inactive
51 | COC1=C(Br)C(=O)c2nc(C)ccc2C1=O | inactive
52 | O=C(CSc1ccc(F)cc1)NC(=O)c1ccccc1 | inactive
53 | CCCC(=O)Nc1ccc(S(=O)(=O)N2CCC(c3nc4ccccc4[nH]3)CC2)cc1 | inactive
54 | Cc1ccc(-n2c(=O)c3ccc(C(=O)NCc4ccccc4Cl)cc3n(Cc3cccc(F)c3)c2=O)cc1 | inactive
55 | OC(CN1CCOCC1)CN(c1ccccc1)c1ccccc1 (stereo not given) | active: 14.6 µM
56 | COC(=O)[C@]12CCCCC=C1N(Cc1ccc(Cl)cc1Cl)C(=O)[C@H](CC(=O)NCc1ccc(OC)c(OC)c1)C2 | inconclusive: 23.1 µM [cytotoxic, partial curve, poor fit]
57 | NC(=O)c1ccc(N2CCN(c3ccccc3O)CC2)c([N+](=O)[O-])c1 | inconclusive: 29.1 µM [cytotoxic, single point]
58 | COc1cccc(N2CCN(C(=O)c3[nH]c(C)c(C(C)=O)c3C)CC2)c1 | active: 5.62 µM
59 | O=C1OC(c2ccccc2)/C(=C(/O)c2ccc(Cl)cc2)C1=O (stereo not given) | inconclusive: 18.4 µM [rising, single point]
60 | O=C(Nc1ccc(Cl)c(S(=O)(=O)N2CCOCC2)c1)c1ccccc1-c1ccc(C(F)(F)F)cc1 | inconclusive: 20.6 µM [cytotoxic, single point]
61 | CC1(C)CC2CC(C)(CN2S(=O)(=O)c2ccc(F)cc2F)C1 (stereo not given) | inconclusive: 29.1 µM [rising, single point]
62 | O=C(CC[C@H]1O[C@@H](n2cnc3c(NC(=O)c4ccccc4)ncnc32)[C@H](O)[C@@H]1O)NCCc1cc2ccccc2[nH]1 | inactive
63 | Cc1cc(C)n2nc(SCc3nnc(SCc4ccccc4)s3)nc2n1 | active: 13 µM
64 | CC1CCCCC1NC(=S)NC(=O)c1cccs1 (stereo not given) | inactive
65 | Cc1nc(N2CCCCC2)sc1C(=O)c1ccc(SCCO)c([N+](=O)[O-])c1 | active: 14.6 µM
66 | Cc1c(C(=O)Nc2ccc3c(c2)OCCO3)sc2ncnc(N3CCCCC3C)c12 (stereo not given) | inconclusive: 0.92 µM [cytotoxic, full curve, poor fit]
67 | O=C1CC(c2ccccc2)CC(O)=C1C=NCCCO (stereo not given) | inconclusive: 13 µM [rising, partial curve, poor fit]
68 | Cc1nc(N2CCCCC2)c2ccsc2n1 | inconclusive: 12.6 µM [cytotoxic, partial curve, poor fit]
69 | O=C(Cn1c(=O)c(=O)n(Cc2ccccc2)c2ccc(Cl)cc21)Nc1cccc(F)c1 | active: 13 µM
70 | CCOC(=O)c1nn(-c2cccc(Cl)c2)c2nc(CC(C)C)c(C#N)c(=O)n12 | inconclusive: 29.1 µM [cytotoxic, partial curve, poor fit]
